{"source": "PubChem BioAssay AID1259308 (NCATS, 2017)", "purpose": "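Knock-downs that increase output of a recombinant reporter protein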 (primary screen)", "cell system": "human HEK293 embryonic kidney cells stably expressing firefly luciferase (HEK-CMV-Luc2-Hygro)", "knock-down reagent": "single siRNA against human genes, 0.8 pmol siRNA per well", "timing": "72 h", "detection": "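Luciferase light (ONE-Glo) measured on one replicate plate set and viability (CellTiter-Glo) on the other, scaled to a negative control siRNA, with robust z-scores and luciferase per cell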", "direction": "total luciferase, z-score and total luciferase, % of control: higher = more reporter protein produced", "call rule": "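Active when the median/MAD z-score for overall luciferase is greater than 3; a gene was taken forward for validation with new siRNAs if at least two of its three siRNAs passed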", "meaning of the calls": "active = raised luciferase; inactive = no rise", "note": "The deposit covers about 59,000 reagents; shown is a part drawn at random. About 1,510 of them (2.6%) count as active. 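Calls use total luciferase alone and ignore viability, so some active siRNAs may act by altering cell number.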 Unmarked entries are inactive. Not all columns of the deposit are shown."}
{"Gene": "POLR2L (RNA polymerase II, I and III subunit L)", "PubChem SID": "SID160723994", "total luciferase, z-score": -1.93, "total luciferase, % of control": 43.5}
{"Gene": "POLR2L (RNA polymerase II, I and III subunit L)", "PubChem SID": "SID160723995", "total luciferase, z-score": -0.579, "total luciferase, % of control": 70.4}
{"Gene": "POLR2L (RNA polymerase II, I and III subunit L)", "PubChem SID": "SID160737097", "total luciferase, z-score": -0.851, "total luciferase, % of control": 65}
{"Gene": "PCGF1 (polycomb group ring finger 1)", "PubChem SID": "SID160752679", "total luciferase, z-score": "7.54 (active)", "total luciferase, % of control": 232}
{"Gene": "PCGF1 (polycomb group ring finger 1)", "PubChem SID": "SID160752680", "total luciferase, z-score": 0.288, "total luciferase, % of control": 87.6}
{"Gene": "PCGF1 (polycomb group ring finger 1)", "PubChem SID": "SID160752682", "total luciferase, z-score": 1.11, "total luciferase, % of control": 104}
{"Gene": "ITIH6 (inter-alpha-trypsin inhibitor heavy chain family member 6)", "PubChem SID": "SID160731121", "total luciferase, z-score": -1.03, "total luciferase, % of control": 61.5}
{"Gene": "ITIH6 (inter-alpha-trypsin inhibitor heavy chain family member 6)", "PubChem SID": "SID160764958", "total luciferase, z-score": 0.458, "total luciferase, % of control": 91}
{"Gene": "ITIH6 (inter-alpha-trypsin inhibitor heavy chain family member 6)", "PubChem SID": "SID160764960", "total luciferase, z-score": -1.04, "total luciferase, % of control": 61.2}
{"Gene": "ITPRIP (inositol 1,4,5-trisphosphate receptor interacting protein)", "PubChem SID": "SID160753305", "total luciferase, z-score": 0.392, "total luciferase, % of control": 89.7}
{"Gene": "ITPRIP (inositol 1,4,5-trisphosphate receptor interacting protein)", "PubChem SID": "SID160753306", "total luciferase, z-score": 1.38, "total luciferase, % of control": 109}
{"Gene": "ITPRIP (inositol 1,4,5-trisphosphate receptor interacting protein)", "PubChem SID": "SID160753307", "total luciferase, z-score": 0.137, "total luciferase, % of control": 84.6}

Reprinted from the listing, 2 entries:
{"Gene": "POLR2L (RNA polymerase II, I and III subunit L)", "PubChem SID": "SID160723995", "total luciferase, z-score": -0.579, "total luciferase, % of control": 70.4}
{"Gene": "POLR2L (RNA polymerase II, I and III subunit L)", "PubChem SID": "SID160737097", "total luciferase, z-score": -0.851, "total luciferase, % of control": 65}
